The record followed here is article PMC7605671.

Chains of the proteins cited; added tags and fusions are not shown.
UniProt Q02248: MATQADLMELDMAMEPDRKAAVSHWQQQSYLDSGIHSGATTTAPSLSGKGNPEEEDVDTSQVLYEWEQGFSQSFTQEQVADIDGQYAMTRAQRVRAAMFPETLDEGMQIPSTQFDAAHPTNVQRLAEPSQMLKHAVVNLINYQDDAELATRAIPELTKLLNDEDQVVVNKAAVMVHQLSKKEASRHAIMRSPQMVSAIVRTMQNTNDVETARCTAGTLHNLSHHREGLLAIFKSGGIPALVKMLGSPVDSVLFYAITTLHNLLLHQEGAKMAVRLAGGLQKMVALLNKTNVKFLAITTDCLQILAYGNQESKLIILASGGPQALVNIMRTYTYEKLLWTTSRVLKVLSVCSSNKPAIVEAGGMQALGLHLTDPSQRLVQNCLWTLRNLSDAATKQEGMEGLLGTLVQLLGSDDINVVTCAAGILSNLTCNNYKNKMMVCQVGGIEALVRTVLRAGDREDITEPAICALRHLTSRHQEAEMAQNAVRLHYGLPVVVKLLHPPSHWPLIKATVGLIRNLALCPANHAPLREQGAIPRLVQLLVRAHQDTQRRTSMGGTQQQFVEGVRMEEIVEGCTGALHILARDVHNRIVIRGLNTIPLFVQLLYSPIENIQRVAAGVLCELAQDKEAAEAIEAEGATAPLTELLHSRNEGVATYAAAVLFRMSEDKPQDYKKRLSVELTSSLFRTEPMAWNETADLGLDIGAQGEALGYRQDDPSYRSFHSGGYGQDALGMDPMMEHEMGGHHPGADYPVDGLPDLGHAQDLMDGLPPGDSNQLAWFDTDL

These are yes or no findings as the source states them, for the method shown. Binding seen in cells or lysates may run through a third protein. Some results given as binding are weak or reduced against the parent protein; the word gives no strength. For part of these data: Where a sequence is shown, tags or fusion partners need not be part of it.

Assay [1] addresses T1, Interferon regulatory factor-1 (IRF1), endogenous in mouse liver after warm IR (mouse (endogenous in liver tissue)) (UniProt P15314).
T1 sequence: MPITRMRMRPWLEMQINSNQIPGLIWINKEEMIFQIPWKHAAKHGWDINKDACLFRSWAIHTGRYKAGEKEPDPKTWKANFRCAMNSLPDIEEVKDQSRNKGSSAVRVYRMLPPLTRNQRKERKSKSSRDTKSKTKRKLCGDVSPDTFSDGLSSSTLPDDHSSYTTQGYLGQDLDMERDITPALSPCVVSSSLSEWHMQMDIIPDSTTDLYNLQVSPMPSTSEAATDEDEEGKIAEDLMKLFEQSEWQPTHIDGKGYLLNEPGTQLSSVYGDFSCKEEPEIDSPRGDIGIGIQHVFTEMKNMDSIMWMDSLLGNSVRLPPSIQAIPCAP
Put plainly: co-IP; mouse liver tissue 6 hrs after warm IR; anti-IRF1 antibody pull-down, Western blot for β-catenin.

The target of assay [2] is T2, Interferon regulatory factor-1 (IRF1), overexpressed from adenoviral IRF-1 (AdIRF-1) (mouse (Ad-mIRF1)) (UniProt P15314).
T2 sequence: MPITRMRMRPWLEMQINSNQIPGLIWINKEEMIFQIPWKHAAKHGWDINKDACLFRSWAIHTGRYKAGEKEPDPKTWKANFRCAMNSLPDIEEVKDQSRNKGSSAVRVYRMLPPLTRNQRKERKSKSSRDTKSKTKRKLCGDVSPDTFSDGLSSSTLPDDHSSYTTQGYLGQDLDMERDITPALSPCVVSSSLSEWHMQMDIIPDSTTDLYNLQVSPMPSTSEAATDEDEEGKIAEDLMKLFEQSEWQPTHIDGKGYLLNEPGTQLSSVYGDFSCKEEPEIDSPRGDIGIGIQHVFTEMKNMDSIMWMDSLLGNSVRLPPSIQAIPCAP
The assay can be described thus: co-IP; primary mouse hepatocytes infected with IRF1-adenovirus for 48 h; lysate incubated with anti-IRF1 or anti-β-catenin antibody on Protein A/G agarose overnight at 4°C; Western blot for the other protein; control IgG.

Assay [3] deals with β-catenin (mouse (endogenous in primary hepatocytes and liver tissue)) (UniProt Q02248). The assay is described as above.

For β-catenin (from UniProt Q02248 1-781), the binding entry in assay [1] and in assay [2] was “binds” throughout.

B1: Interferon regulatory factor-1 (IRF1), overexpressed from adenoviral IRF-1 (AdIRF-1) (protein, UniProt P15314 1-329)
chain: MPITRMRMRPWLEMQINSNQIPGLIWINKEEMIFQIPWKHAAKHGWDINKDACLFRSWAIHTGRYKAGEKEPDPKTWKANFRCAMNSLPDIEEVKDQSRNKGSSAVRVYRMLPPLTRNQRKERKSKSSRDTKSKTKRKLCGDVSPDTFSDGLSSSTLPDDHSSYTTQGYLGQDLDMERDITPALSPCVVSSSLSEWHMQMDIIPDSTTDLYNLQVSPMPSTSEAATDEDEEGKIAEDLMKLFEQSEWQPTHIDGKGYLLNEPGTQLSSVYGDFSCKEEPEIDSPRGDIGIGIQHVFTEMKNMDSIMWMDSLLGNSVRLPPSIQAIPCAP
As for B1, in assay [3], the binding result is recorded as “binds”.
